Some entries share one result that the patent states for a list of compounds. Where a SMILES comes first, the peptide text is derived from it. [ ]: non-standard residue; d: D form. The star is where a group is joined. Arachidoyl = CCCCCCCCCCCCCCCCCCCC(=O)*; Palmitoyl = CCCCCCCCCCCCCCCC(=O)*; hPhe = N[C@@H](CCc1ccccc1)C(=O)O; Phg = N[C@H](C(=O)O)c1ccccc1; β3hK = NCCCC[C@H](N)CC(=O)O; Pip = O=C(O)[C@@H]1CCCCN1
Biological target: human Thrombin (Homo sapiens, UniProt P00734)
Assay: Selectivity screening, human serine protease thrombin
Format: biochemical
Conditions: at 25 M
Procedure: By catalytic activity of the protease, the cleaved substrate results in increased fluorescence that can be monitored using a BMG Labtech Fluostar OPTIMA Microtiter fluorescence plate reader (excitation wavelength of 320 nm and a monitored emission wavelength of 405 nm). Dilutions were made starting from 10 mM stock solutions in DMSO and final concentrations were measured in triplicates. The inhibitors were preincubated for 15 min with DENV protease (100 nM) in the assay buffer (50 mM Tris-HCl pH 9.0, ethylene glycol (10% v/v), and 0.0016% Brij 58). The enzymatic reaction was initiated by the addition of the FRET substrate (final concentration 50 μM) to obtain a final assay volume of 100 μL per well. The enzymatic activity was monitored for 15 min and determined as a slope of relative fluorescence units per second (RFU/s) for each concentration. The mean of the triplicates were plotted against the corresponding concentration in CDDVault to determine the IC50-values. Analogous procedures were used to determine the inhibitory potency on WNV (Kühl et al., J. Med. Chem. 2020, 63 (15): 8179-8197) and ZIKA protease (Nitsche et al., ACS Med. Chem. Lett. 2019 Feb. 14; 10 (2): 168-174). For selectivity screening of active candidates, similar biochemical assays with human serine proteases trypsin (Weigel et al., J. Med. Chem. 2015, 58 (19), 7719-7733.) and/or thrombin (Nitsche et al., J. Med. Chem. 2013, 56 (21), 8389-8403) were used.

CCCCCCCCCCCCCCCC(=O)N[C@@H](CCCCC(=N)N)C(=O)N[C@@H](Cc1c[nH]cn1)C(N)=O [compound 170]
inhibition of human Thrombin: less than 20%

CCCCCCCCCCCCCCCC(=O)N[C@H](CCCCN)C(=O)N[C@@H](C)C(=O)N[C@@H](Cc1ccccc1)C(N)=O [compound 190] (Palmitoyl-[dK]-Ala-Phe-NH2)
inhibition of human Thrombin: less than 20%

CCCCCCCCCCCCCCCC(=O)N[C@@H](CCCNC(=N)N)C(=O)N[C@@H](CCC(N)=O)C(=O)N[C@@H](Cc1ccccc1)C(N)=O [compound 43] (Palmitoyl-Arg-Gln-Phe-NH2)
inhibition of human Thrombin: less than 20%

CCCCCCCCCCCCCCCC(=O)N[C@@H](CCCCN)C(=O)N[C@@H](C)C(=O)N[C@@H](Cc1cnc[nH]1)C(N)=O [compound 167] (Palmitoyl-Lys-Ala-His-NH2)
inhibition of human Thrombin: less than 20%

CCCCCCCCCCCCCCCC(=O)N[C@@H](CCCCN)CC(=O)N1CCC[C@H]1C(=O)N[C@@H](C)C(=O)N[C@@H](Cc1ccccc1)C(N)=O [compound 116] (Palmitoyl-[β3hK]PAF-NH2)
inhibition of human Thrombin: less than 20%

CCCCCCCCCCCCCCCCCCCC(=O)N[C@@H](CCCCN)C(=O)N[C@@H](C)C(=O)N[C@@H](C)C(=O)N[C@H](CCCCN)C(N)=O [compound 132] (Arachidoyl-KAA[dK]-NH2)
inhibition of human Thrombin: less than 20%

CCCCCCCCCCCCCCCC(=O)N[C@@H](CCCCN)C(=O)N1CCC[C@H]1C(=O)N[C@H](C(=O)N[C@@H](CCCCN)C(N)=O)c1ccccc1 [compound 13] (Palmitoyl-KP[Phg]K-NH2)
inhibition of human Thrombin: less than 20%

CCCCCCCCCCCCCCCC(=O)N[C@@H](CCCCN)C(=O)N[C@@H](C)C(=O)N[C@@H](C)C(=O)N[C@@H](CCCCN)C(=O)O [compound 189] (Palmitoyl-KAAK-OH)
inhibition of human Thrombin: less than 20%

CCCCCCCCCCCCCCCC(=O)N[C@@H](CCCCN)C(=O)N1CCCC[C@H]1C(=O)N[C@H](C(=O)N[C@@H](CCCCN)C(N)=O)c1ccccc1 [compound 16] (Palmitoyl-K[Pip][Phg]K-NH2)
inhibition of human Thrombin: less than 20%

CCCCCCCCCCCCCCCC(=O)N[C@H](CCCCN)C(=O)N1CCC[C@H]1C(=O)N[C@@H](C)C(=O)N[C@@H](Cc1c[nH]c2ccccc12)C(N)=O [compound 196] (Palmitoyl-[dK]PAW-NH2)
inhibition of human Thrombin: less than 20%

CCCCCCCCCCCCCCCC(=O)N[C@@H](CCCCN)CN1CCC[C@H]1C(=O)N[C@@H](C)C(=O)N[C@H](Cc1c[nH]c2ccccc12)C(N)=O [compound 122]
inhibition of human Thrombin: less than 20%

CCCCCCCCCCCCCCCC(=O)N[C@@H](CCCCN)C(=O)N[C@@H](C)C(=O)N[C@@H](CCCCN)C(C)=O [compound 175]
inhibition of human Thrombin: less than 20%

CCCCCCCCCCCCCCCC(=O)N[C@H](CCCNC(=N)N)C(=O)N[C@@H](CCC(N)=O)C(=O)N[C@@H](Cc1ccccc1)C(N)=O [compound 44] (Palmitoyl-[dR]-Gln-Phe-NH2)
inhibition of human Thrombin: less than 20%

CCCCCCCCCCCCCCCC(=O)N[C@@H](CCCCN)C(=O)N[C@@H](C)C(=O)N[C@@H](C)C(=O)N[C@@H](Cc1cnc[nH]1)C(N)=O [compound 168] (Palmitoyl-KAAH-NH2)
inhibition of human Thrombin: less than 20%

CCCCCCCCCCCCCCCC(=O)N[C@@H](CCCCN)C(=O)N[C@@H](C)C(=O)N[C@@H](C)C(=O)N[C@H](Cc1c[nH]cn1)C(N)=O [compound 171] (Palmitoyl-KAA[dH]-NH2)
inhibition of human Thrombin: less than 20%

CCCCCCCCCCCCCCCC(=O)N[C@@H](CCCCN)C(=O)N[C@@H](C)C(=O)N[C@@H](C)C(=O)N[C@@H](C=O)CCCCN [compound 181] (Palmitoyl-KAA[dK]-aldehyde)
inhibition of human Thrombin: less than 20%

CCCCCCCCCCCCCCCC(=O)N[C@@H](CCCCN)C(=O)N1CCC[C@H]1C(=O)N[C@@H](C)C(=O)N[C@H](Cc1ccccc1)C(N)=O [compound 123] (Palmitoyl-KPA[dF]-NH2)
inhibition of human Thrombin: less than 20%

CCCCCCCCCCCCCCCC(=O)N[C@@H](CCCCN)CN1CCC[C@H]1C(=O)N[C@@H](C)C(=O)N[C@H](CCc1ccccc1)C(N)=O [compound 118]
inhibition of human Thrombin: less than 20%

CCCCCCCCCCCCCCCC(=O)N[C@@H](CCCCN)C(=O)N1CCC[C@H]1C(=O)N[C@@H](C)C(=O)N[C@@H](CCCCN)C(=O)C(N)=O [compound 10]
inhibition of human Thrombin: less than 20%

CCCCCCCCCCCCCCCC(=O)N[C@@H](CCCCN)CC(=O)N1CCC[C@H]1C(=O)N[C@@H](C)C(=O)N[C@@H](CCc1ccccc1)C(N)=O [compound 117] (Palmitoyl-[β3hK]PA[hPhe]-NH2)
inhibition of human Thrombin: less than 20%

CCCCCCCCCCCCCCCCCCCC(=O)N[C@@H](CCCCN)C(=O)N1CCC[C@H]1C(=O)N[C@@H](C)C(=O)N[C@@H](CCCCN)C(N)=O [compound 125] (Arachidoyl-KPAK-NH2)
inhibition of human Thrombin: less than 20%

CCCCCCCCCCCCCCCC(=O)N[C@@H](CCCCN)C(=O)N[C@@H](C)C(=O)N[C@@H](C)C(=O)N[C@@H](Cc1ccccc1)C(N)=O [compound 17] (Palmitoyl-KAAF-NH2)
inhibition of human Thrombin: less than 20%

CCCCCCCCCCCCCCCC(=O)N[C@@H](CCCCN)C(=O)N[C@@H](C)C(=O)N[C@H](C=O)CCCCN [compound 186] (Palmitoyl-Lys-Ala-Lys-aldehyde)
inhibition of human Thrombin: less than 20%

CCCCCCCCCCCCCCCC(=O)N[C@@H](CCCCN)C(=O)N[C@@H](C)C(=O)N[C@@H](CCCCN)C(=O)C(N)=O [compound 176]
inhibition of human Thrombin: less than 20%

CCCCCCCCCCCCCCCC(=O)N[C@@H](CCCCN)C(=O)N[C@@H](C)C(=O)N[C@@H](C)C(=O)N[C@@H](CCCCN)C(=O)C(N)=O [compound 9]
inhibition of human Thrombin: less than 20%

CCCCCCCCCCCCCCCC(=O)N[C@@H](CCCCN)C(=O)N[C@@H](C)C(=O)N[C@@H](C)C(=O)N[C@@H](Cc1c[nH]c2ccccc12)C(N)=O [compound 92] (Palmitoyl-KAAW-NH2)
inhibition of human Thrombin: less than 20%

CCCCCCCCCCCCCCCC(=O)N[C@H](CCCCN)C(=O)N[C@@H](C)C(=O)N[C@@H](C)C(=O)N[C@@H](CCCCN)C(N)=O [compound 115] (Palmitoyl-[dK]AAK-NH2)
inhibition of human Thrombin: less than 20%

CCCCCCCCCCCCCCCC(=O)N[C@@H](CCCCN)C(=O)N1CCC[C@H]1C(=O)N[C@@H](Cc1cnc[nH]1)C(=O)N[C@@H](CCc1ccccc1)C(N)=O [compound 11] (Palmitoyl-KPH[hPhe]-NH2)
inhibition of human Thrombin: less than 20%

CCCCCCCCCCCCCCCC(=O)N[C@H](C)C(=O)N1C[C@H](Oc2ccncc2)C[C@H]1C(=O)N[C@H](C)C(=O)N[C@H](CCCCN)C(N)=O [compound 8]
inhibition of human Thrombin: less than 20%

CCCCCCCCCCCCCCCC(=O)N[C@@H](CCCCN)C(=O)N[C@@H](C)C(=O)N[C@@H](C)C(=O)N[C@H](C=O)CCCCN [compound 180] (Palmitoyl-KAAK-aldehyde)
inhibition of human Thrombin: less than 20%

CCCCCCCCCCCCCCCC(=O)N[C@@H](CCCCN)C(=O)N[C@@H](C)C(=O)N[C@@H](C)C(=O)N[C@@H](CCc1ccccc1)C(N)=O [compound 90] (Palmitoyl-KAA[hPhe]-NH2)
inhibition of human Thrombin: less than 20%

Source: patent US20250059231A1, “Protease inhibitors” (priority 2021, published 2025)
